According to article PMC3751843:
Results are given in words; binding and its absence hold for the method and conditions named. In cells and extracts the contact can be indirect. Some results given as binding are weak or reduced against the parent protein; the word gives no strength.

By UniProt entry, the sequences of proteins in these tests, tags left out.
UniProt Q13547: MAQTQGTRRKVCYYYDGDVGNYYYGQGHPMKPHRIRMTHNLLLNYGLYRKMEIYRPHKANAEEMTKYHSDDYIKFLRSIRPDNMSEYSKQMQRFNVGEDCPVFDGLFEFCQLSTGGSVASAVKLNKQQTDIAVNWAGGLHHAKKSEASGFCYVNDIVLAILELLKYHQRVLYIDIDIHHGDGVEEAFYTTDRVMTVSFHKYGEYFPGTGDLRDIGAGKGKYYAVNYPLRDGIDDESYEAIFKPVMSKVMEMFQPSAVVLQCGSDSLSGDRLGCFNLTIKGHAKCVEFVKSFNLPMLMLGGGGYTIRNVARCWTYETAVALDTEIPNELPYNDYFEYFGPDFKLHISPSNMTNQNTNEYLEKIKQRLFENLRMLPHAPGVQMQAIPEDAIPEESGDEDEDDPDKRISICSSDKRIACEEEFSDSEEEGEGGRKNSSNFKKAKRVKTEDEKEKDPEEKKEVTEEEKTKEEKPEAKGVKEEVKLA
UniProt Q04206: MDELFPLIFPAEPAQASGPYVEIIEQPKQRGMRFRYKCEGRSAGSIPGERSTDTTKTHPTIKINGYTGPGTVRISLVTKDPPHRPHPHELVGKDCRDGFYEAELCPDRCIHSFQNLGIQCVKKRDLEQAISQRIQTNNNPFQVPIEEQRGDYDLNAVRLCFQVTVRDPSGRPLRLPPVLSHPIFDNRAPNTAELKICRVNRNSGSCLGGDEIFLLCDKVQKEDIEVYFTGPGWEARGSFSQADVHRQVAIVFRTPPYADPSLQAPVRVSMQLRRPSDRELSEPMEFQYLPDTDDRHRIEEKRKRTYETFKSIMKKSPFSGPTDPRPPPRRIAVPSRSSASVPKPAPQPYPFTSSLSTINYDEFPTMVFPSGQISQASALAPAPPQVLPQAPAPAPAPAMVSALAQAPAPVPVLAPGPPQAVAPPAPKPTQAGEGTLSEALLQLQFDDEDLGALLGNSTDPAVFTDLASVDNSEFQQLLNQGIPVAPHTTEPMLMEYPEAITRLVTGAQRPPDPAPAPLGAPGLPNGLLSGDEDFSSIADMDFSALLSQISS

Molecular target: HDAC1 (human (endogenous in AGS)) (UniProt Q13547)
Experiment: co-IP; lysates of AGS cells treated with 10 ng/ml recombinant IL1B or left untreated; 200 mM NaCl, 20 mM Tris-HCl pH 7.5, 1% Triton X-100, 1 mM DTT; immunoprecipitated overnight with anti-HDAC1 or anti-p300 antibody, Protein-G sepharose; blotted with anti NFkB p65 antibody; rabbit normal IgG as control

In the case of NFkB p65 (from UniProt Q04206 1-551), the binding is reported as “binds”.
